According to publication PMC10866652:
These are yes or no findings as the source states them, for the method shown. In cells and extracts the contact can be indirect. A result given as binding can be weak or reduced; the word gives no strength. Tags and fused reporters may be left off the sequences shown.

By UniProt entry, the sequences of proteins in these tests, tags left out. Where a name states a change or a piece, a line headed by the entry shows the natural chain unless it says otherwise.
UniProt Q64332: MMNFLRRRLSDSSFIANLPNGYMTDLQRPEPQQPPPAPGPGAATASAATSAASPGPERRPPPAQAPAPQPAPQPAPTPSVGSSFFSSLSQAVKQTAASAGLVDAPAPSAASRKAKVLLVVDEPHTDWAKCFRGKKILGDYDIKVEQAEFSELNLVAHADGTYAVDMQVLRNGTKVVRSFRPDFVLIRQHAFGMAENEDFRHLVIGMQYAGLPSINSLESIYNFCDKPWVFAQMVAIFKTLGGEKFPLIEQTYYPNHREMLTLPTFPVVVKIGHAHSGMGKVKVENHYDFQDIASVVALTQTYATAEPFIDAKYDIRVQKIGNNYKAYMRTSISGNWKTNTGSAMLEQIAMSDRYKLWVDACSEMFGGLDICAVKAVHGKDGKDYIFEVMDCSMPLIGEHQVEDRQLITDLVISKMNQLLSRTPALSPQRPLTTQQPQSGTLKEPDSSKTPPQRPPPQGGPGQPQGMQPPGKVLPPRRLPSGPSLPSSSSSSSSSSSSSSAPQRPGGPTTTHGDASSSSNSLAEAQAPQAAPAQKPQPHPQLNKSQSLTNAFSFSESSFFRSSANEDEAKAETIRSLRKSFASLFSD

Target: T1, Syngr3(fl)-HA (mouse) (UniProt Q8R191)
T1 sequence: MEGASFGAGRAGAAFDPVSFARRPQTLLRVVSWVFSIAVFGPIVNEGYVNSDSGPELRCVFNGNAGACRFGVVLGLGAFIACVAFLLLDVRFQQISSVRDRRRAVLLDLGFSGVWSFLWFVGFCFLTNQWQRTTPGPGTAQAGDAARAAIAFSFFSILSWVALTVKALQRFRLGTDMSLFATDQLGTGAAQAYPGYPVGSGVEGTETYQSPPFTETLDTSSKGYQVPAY
Assay: co-IP; HEK293T cells transiently co-transfected; lysates precipitated with anti-HA, blotted with anti-HA and anti-EGFP (Figure 6C)

Substance	binding
EGFP-Syn2a-ΔE (from UniProt Q64332)	binds
EGFP-Syn2a-ΔH (from UniProt Q64332)	no binding
